The data set concerns the target T1, McrA (rMcrA-S, C-terminal StrepII) (Escherichia coli) (UniProt P24200).
T1 sequence (looked up, limits assumed): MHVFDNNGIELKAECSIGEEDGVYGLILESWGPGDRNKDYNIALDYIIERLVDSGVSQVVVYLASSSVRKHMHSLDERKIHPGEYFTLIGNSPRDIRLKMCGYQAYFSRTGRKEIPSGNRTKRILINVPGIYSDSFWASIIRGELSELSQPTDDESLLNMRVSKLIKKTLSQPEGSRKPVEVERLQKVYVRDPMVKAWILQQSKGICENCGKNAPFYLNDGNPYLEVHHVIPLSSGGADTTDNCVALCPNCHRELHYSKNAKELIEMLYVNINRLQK
The data set is described as follows: EMSA. The settings on record: purified recombinant protein, protein details: C-terminal StrepII SAWSHPQFEK
(In general: In EMSA bound probe runs differently from free probe, usually more slowly.)

No signal at the amounts used counts as a negative. Tags and fusion partners may be left off the protein sequences shown. The comparison behind a weaker result is the experiment's own reference, which may not be listed here. Construct, isoform or probe ends are uncertain for at least one entry.

“GCCTTCAGCGCCGGCGGATCCAGT (double strand) [m5C/I cassette]”: under “5mC at position 12 of top strand only, inosine (n) in bottom strand opposite m5C [top 12 5mC, bottom 13 inosine (parent base G)], I opposite m5C, letters built from the parent sequence and the stated change, variant of hemimethylated Cm5CGG cassette (m5C/G)”, the binding result is “binds”.

Consider “GCCTTCAGCGCCGGCGGATCCAGT (double strand) [m5CGG three-fourth HpaII cassette]”, for which the binding result (5mC at position 15 of top strand and 9 of bottom strand, bound (Yes in table), evident at higher protein to DNA ratios) was “binds more weakly”.

Consider “GCCTTCAGCGCCGGCGGATCCAGT (double strand) [unmethylated cassette]”, for which the binding result (unmethylated control) is listed as “no binding”.

(Values after patent publication US20120219942, “Methods Employing McrA to Detect 5-Methyl Cytosine” (Brookhaven Science Associates, LLC, published 2012).)
